Drawing on PMC11060674, this text covers binding for three substances.

Chains of the proteins cited; added tags and fusions are not shown. Lines headed by an entry give the natural chain unless they say otherwise; changes in a name come on top.
UniProt F6H3T7: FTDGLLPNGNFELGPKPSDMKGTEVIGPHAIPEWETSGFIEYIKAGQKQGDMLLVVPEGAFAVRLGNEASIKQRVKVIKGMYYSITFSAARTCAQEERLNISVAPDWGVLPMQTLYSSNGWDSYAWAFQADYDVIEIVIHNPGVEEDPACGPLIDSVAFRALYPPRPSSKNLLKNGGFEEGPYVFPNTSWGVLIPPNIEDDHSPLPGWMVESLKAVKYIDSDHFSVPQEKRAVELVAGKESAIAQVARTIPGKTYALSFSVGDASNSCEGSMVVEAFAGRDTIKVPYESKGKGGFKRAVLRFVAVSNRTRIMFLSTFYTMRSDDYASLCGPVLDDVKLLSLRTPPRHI
UniProt E0CQG0: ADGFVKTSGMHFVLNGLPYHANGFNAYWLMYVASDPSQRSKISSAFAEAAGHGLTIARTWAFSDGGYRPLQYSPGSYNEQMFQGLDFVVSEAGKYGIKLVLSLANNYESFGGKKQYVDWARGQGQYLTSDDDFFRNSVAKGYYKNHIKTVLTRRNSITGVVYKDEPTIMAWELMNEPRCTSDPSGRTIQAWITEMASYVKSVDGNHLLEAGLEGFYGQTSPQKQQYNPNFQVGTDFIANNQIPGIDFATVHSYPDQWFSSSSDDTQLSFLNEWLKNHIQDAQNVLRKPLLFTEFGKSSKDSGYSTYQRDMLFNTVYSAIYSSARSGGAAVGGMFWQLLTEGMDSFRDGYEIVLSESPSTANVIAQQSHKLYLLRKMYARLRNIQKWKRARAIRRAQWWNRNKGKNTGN
UniProt D7TFE6: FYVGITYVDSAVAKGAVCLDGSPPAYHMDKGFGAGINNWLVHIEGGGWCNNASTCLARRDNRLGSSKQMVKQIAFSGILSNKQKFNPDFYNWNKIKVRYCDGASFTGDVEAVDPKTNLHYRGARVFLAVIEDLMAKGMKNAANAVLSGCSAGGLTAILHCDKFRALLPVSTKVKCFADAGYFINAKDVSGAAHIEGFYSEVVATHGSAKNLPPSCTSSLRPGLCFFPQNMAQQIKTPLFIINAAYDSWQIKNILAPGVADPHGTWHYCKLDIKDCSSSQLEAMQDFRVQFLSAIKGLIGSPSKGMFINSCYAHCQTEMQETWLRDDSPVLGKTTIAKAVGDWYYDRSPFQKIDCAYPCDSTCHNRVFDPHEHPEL

Assay [1] addresses VvDUF642, split-YFP (BiFC) fusion (Vitis vinifera) (UniProt F6H3T7). The experiment in a line: split reporter; split-YFP (nYFP/cYFP fusions) co-infiltrated by Agrobacterium into N. benthamiana leaf epidermal cells; cYFP empty vector as negative control.
In assay [2] the target is DUF642-flag (Vitis vinifera) (UniProt F6H3T7). Nature of the assay: co-IP; total protein of N. benthamiana leaves transiently expressing DUF642-flag, VvPAE-HA and GFP-flag; anti-flag antibody on protein A agarose, 4 °C, 2 h; blots with anti-flag and anti-HA.

No constants are given. Whether binding was seen depends on the method and setting. Binding seen in cells or lysates may run through a third protein. A result given as binding can be weak or reduced; the word gives no strength.

“VvCDP, split-YFP (BiFC) fusion (from UniProt E0CQG0)”: in assay [1], the binding result is recorded as “no binding”.
In the case of “VvPAE, split-YFP (BiFC) fusion (from UniProt D7TFE6) (enzyme)”, the binding result in assay [1] is recorded as “binds”.
For the substance VvPAE-HA (from UniProt D7TFE6) (enzyme), in assay [2], the binding entry is recorded as “binds”.
